Taken from: PubChem BioAssay AID1259308 (NCATS, 2017)
The whole screen tested about 59,000 reagents; below is a part drawn at random. About 1,510 of them (2.6%) were called active. 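Calls use total luciferase alone and ignore viability, so some active siRNAs may act by altering cell number.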 Entries without a mark were called inactive. Reagents against one gene are numbered here. Not all columns of the deposit are shown.

Aim: 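Genes whose loss raises luciferase production in HEK293 cells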 (primary screen)
Cells: human HEK293 embryonic kidney cells stably expressing firefly luciferase (HEK-CMV-Luc2-Hygro)
Reagent: single siRNA against human genes, 0.8 pmol siRNA per well
Timing: 72 h
Detection: 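Luciferase light (ONE-Glo) measured on one replicate plate set and viability (CellTiter-Glo) on the other, scaled to a negative control siRNA, with robust z-scores and luciferase per cell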
Reading the numbers: total luciferase, z-score and total luciferase, % of control: higher = more reporter protein produced
Hit rule: 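An siRNA counts as active if its total luciferase robust z-score exceeds 3; genes with two or more such siRNAs out of three were retested with fresh siRNAs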
Meaning of the calls: active = raised luciferase; inactive = no rise

DIAPH2 (GeneID 1730) #1
- total luciferase, z-score: -0.651
- total luciferase, % of control: 68.9

DIAPH2 (GeneID 1730) #2
- total luciferase, z-score: -1.1
- total luciferase, % of control: 60

DIAPH2 (GeneID 1730) #3
- total luciferase, z-score: -0.561
- total luciferase, % of control: 70.7

WDR37 (GeneID 22884) #1
- total luciferase, z-score: -0.72
- total luciferase, % of control: 67.6

WDR37 (GeneID 22884) #2
- total luciferase, z-score: -0.0755
- total luciferase, % of control: 80.4

WDR37 (GeneID 22884) #3
- total luciferase, z-score: 0.597
- total luciferase, % of control: 93.8

SEC16A (GeneID 9919) #1
- total luciferase, z-score: 0.119
- total luciferase, % of control: 84.3

SEC16A (GeneID 9919) #2
- total luciferase, z-score: -0.229
- total luciferase, % of control: 77.3

SEC16A (GeneID 9919) #3
- total luciferase, z-score: 0.787
- total luciferase, % of control: 97.5

NATD1 (GeneID 256302) #1
- total luciferase, z-score: 0.126
- total luciferase, % of control: 84.4

NATD1 (GeneID 256302) #2
- total luciferase, z-score: -1.4
- total luciferase, % of control: 54.1

NATD1 (GeneID 256302) #3
- total luciferase, z-score: -1.05
- total luciferase, % of control: 61.1

Next part (3 carried over from the part before).
NATD1 (GeneID 256302) #1
- total luciferase, z-score: 0.126
- total luciferase, % of control: 84.4

NATD1 (GeneID 256302) #2
- total luciferase, z-score: -1.4
- total luciferase, % of control: 54.1

NATD1 (GeneID 256302) #3
- total luciferase, z-score: -1.05
- total luciferase, % of control: 61.1

FBXO15 (GeneID 201456) #1
- total luciferase, z-score: -0.835
- total luciferase, % of control: 65.3

FBXO15 (GeneID 201456) #2
- total luciferase, z-score: -0.15
- total luciferase, % of control: 78.9

FBXO15 (GeneID 201456) #3
- total luciferase, z-score: -0.337
- total luciferase, % of control: 75.2

PEDS1 (GeneID 387521) #1
- total luciferase, z-score: -0.813
- total luciferase, % of control: 65.7

PEDS1 (GeneID 387521) #2
- total luciferase, z-score: 1.24
- total luciferase, % of control: 107

PEDS1 (GeneID 387521) #3
- total luciferase, z-score: 1.64
- total luciferase, % of control: 115

RBM39 (GeneID 9584) #1
- total luciferase, z-score: 5.48 (active)
- total luciferase, % of control: 191

RBM39 (GeneID 9584) #2
- total luciferase, z-score: 2.55
- total luciferase, % of control: 133

RBM39 (GeneID 9584) #3
- total luciferase, z-score: 0.4
- total luciferase, % of control: 89.8
